From article PMC6925871 come the findings set out here.

For at least one entry, the source does not settle the construct or the ends of the probe. Results from cells or extracts need not show a direct contact. At least one verdict was read from the data and is not stated in words by the source. Where a protein sequence is shown, tags need not be part of it.

The target of this data set is T1, CTCF (Homo sapiens) (UniProt P49711).
T1 sequence (looked up, limits assumed): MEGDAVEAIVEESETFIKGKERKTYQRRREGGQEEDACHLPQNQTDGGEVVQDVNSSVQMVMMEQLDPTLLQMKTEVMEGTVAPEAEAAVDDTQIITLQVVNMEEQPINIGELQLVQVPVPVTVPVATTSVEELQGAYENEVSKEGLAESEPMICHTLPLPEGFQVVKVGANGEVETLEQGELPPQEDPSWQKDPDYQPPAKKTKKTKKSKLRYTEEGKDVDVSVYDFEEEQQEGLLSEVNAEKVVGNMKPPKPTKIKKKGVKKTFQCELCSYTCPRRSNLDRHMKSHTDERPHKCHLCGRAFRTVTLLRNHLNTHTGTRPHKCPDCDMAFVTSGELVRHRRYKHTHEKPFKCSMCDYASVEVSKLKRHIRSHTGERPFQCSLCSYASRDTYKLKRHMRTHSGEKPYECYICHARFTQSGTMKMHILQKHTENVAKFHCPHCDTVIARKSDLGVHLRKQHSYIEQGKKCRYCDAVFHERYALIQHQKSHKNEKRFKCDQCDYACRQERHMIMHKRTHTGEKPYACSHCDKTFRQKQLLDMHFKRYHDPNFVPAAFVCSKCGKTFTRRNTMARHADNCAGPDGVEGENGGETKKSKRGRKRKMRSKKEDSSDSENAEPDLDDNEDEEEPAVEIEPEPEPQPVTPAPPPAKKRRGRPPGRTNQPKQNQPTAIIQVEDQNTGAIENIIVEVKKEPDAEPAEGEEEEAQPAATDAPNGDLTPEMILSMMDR
The experiment in a line: EMSA. Conditions: 25 uM ZnSO4, 5 mM MgCl2, with and without CTCF antibody; protein in a lysate after overexpression. (Mobility shift assays separate free from complexed probe on a gel.)

For the sequence “ATGCGTTTCCCCGCGAGGTGGCGCTTTCTCCCC (double strand) [vCTCF-BS wild type]”, the binding result is recorded as “binds”.
